Test results reported in patent US20110269141A1, “TARGET PROTEIN AND TARGET GENE FOR DRUG DISCOVERY, AND SCREENING METHOD” (REVERSE PROTEOMICS RESEARCH INSTITUTE CO., LTD., priority 2007, published 2011).
Blank lines part the entries; values can stand above or below the compound they belong to.

Chains of the proteins cited; added tags and fusions are not shown. Lines headed by an entry give the natural chain unless they say otherwise; changes in a name come on top.
UniProt O15355: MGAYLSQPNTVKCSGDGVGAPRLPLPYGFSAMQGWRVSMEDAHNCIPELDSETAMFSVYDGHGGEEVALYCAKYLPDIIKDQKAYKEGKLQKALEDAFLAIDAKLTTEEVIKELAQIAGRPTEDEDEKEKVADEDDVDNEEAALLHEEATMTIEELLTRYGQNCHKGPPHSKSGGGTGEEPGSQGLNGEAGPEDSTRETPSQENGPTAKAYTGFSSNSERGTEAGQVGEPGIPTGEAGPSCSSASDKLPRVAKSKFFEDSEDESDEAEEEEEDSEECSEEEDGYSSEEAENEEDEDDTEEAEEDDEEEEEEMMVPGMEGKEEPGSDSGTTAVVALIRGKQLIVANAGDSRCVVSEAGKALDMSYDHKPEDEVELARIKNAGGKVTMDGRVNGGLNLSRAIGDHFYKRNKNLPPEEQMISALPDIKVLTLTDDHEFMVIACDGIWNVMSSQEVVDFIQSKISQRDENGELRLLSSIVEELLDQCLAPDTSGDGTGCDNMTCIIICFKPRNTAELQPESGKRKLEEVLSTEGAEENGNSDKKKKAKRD

Tests used:
Assay in all cases: SEC-MS interaction analysis
Assay type in all cases: binding
[1] = molecular target: T1, protein of SEQ ID NO:61 (FLJ No. in Table 1-8) (Homo sapiens, UniProt A1Z1Q3)
T1 construct: A human full-length cDNA clone was expressed as a protein with an N-terminal His tag; His tag (N); made in house; host or cells: Escherichia coli BL21star(DE3)pLysS
T1 sequence (A1Z1Q3 236-425): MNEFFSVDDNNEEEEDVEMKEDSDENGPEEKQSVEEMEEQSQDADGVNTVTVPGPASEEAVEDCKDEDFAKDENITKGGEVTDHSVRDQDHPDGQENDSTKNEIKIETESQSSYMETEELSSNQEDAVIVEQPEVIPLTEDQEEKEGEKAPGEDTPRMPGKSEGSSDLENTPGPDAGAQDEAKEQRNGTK

FLJ45688 (SEQ ID NO:23) = molecular target: T2, FLJ45688 (SEQ ID NO:23) (Homo sapiens, UniProt O15355, DEL20-36/V37F)
T2 construct: proteins expressed from human full-length cDNA clones; His tag (N); made in house; host or cells: Escherichia coli BL21star(DE3)pLysS (pDEST17)
T2 sequence (O15355 with tags, fused parts or gaps DEL20-36/V37F): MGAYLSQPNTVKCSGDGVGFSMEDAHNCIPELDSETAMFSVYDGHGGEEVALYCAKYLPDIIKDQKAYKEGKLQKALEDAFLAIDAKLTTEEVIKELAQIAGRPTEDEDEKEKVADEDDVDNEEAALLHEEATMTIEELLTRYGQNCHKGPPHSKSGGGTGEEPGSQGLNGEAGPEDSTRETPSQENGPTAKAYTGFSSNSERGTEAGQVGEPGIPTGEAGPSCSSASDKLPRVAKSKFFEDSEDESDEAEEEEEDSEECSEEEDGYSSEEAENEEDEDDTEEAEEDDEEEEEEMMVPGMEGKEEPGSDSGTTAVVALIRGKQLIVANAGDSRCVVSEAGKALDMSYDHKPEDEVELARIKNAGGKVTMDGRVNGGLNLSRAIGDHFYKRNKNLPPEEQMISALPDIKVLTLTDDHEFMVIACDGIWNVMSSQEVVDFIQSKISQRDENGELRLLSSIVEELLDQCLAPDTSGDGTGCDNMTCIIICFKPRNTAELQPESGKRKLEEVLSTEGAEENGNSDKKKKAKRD

FLJ16517 (SEQ ID NO:54) = molecular target: T3, FLJ16517 (SEQ ID NO:54) (Homo sapiens, UniProt Q6ZN17)
T3 construct: A human full-length cDNA clone was expressed as a protein with an N-terminal His tag; His tag (N); made in house; host or cells: Escherichia coli BL21star(DE3)pLysS
T3 sequence (Q6ZN17 1-250): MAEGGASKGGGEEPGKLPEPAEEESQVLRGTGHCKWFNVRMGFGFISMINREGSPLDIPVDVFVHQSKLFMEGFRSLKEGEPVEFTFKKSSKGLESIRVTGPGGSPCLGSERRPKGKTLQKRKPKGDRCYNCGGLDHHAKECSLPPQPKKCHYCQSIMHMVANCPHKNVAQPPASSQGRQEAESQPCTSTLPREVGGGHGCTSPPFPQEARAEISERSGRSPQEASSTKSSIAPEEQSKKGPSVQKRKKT

Compound: CC(C)(C)CC(C)(C)c1ccc(OCCOCC[N+](C)(C)Cc2ccccc2)cc1 [benzethonium]
- SEC-MS signal of compound in measured mass range ([1]; protein 0 uM, compound 1 uM, Minerals (+)): 0.0
- SEC-MS signal of compound in measured mass range ([1]; protein 0 uM, compound 1 uM, Minerals (−)): 0.0
- SEC-MS signal of compound in measured mass range ([1]; protein 0 uM, compound 10 uM, Minerals (+)): 0.0
- SEC-MS signal of compound in measured mass range ([1]; protein 0 uM, compound 10 uM, Minerals (−)): 0.0
- SEC-MS signal of compound in measured mass range ([1]; protein 0 uM, compound 100 uM, Minerals (+)): 0.1
- SEC-MS signal of compound in measured mass range ([1]; protein 0 uM, compound 100 uM, Minerals (−)): 1.5
- SEC-MS signal of compound in measured mass range ([1]; protein 0 uM, compound 250 uM, Minerals (+)): 1.2
- SEC-MS signal of compound in measured mass range ([1]; protein 0 uM, compound 250 uM, Minerals (−)): 3.0
- SEC-MS signal of compound in measured mass range ([1]; protein 23.8 uM, compound 1 uM, Minerals (+)): 0.0
- SEC-MS signal of compound in measured mass range ([1]; protein 23.8 uM, compound 1 uM, Minerals (−)): 0.0
- SEC-MS signal of compound in measured mass range ([1]; protein 23.8 uM, compound 10 uM, Minerals (+)): 0.0
- SEC-MS signal of compound in measured mass range ([1]; protein 23.8 uM, compound 10 uM, Minerals (−)): 0.0
- SEC-MS signal of compound in measured mass range ([1]; protein 23.8 uM, compound 100 uM, Minerals (+)): 1.2
- SEC-MS signal of compound in measured mass range ([1]; protein 23.8 uM, compound 100 uM, Minerals (−)): 0.6
- SEC-MS signal of compound in measured mass range ([1]; protein 23.8 uM, compound 250 uM, Minerals (+)): 2.7
- SEC-MS signal of compound in measured mass range ([1]; protein 23.8 uM, compound 250 uM, Minerals (−)): 29.5
- SEC-MS signal of compound in measured mass range ([1]; protein 47.5 uM, compound 1 uM, Minerals (+)): 0.0
- SEC-MS signal of compound in measured mass range ([1]; protein 47.5 uM, compound 1 uM, Minerals (−)): 0.0
- SEC-MS signal of compound in measured mass range ([1]; protein 47.5 uM, compound 10 uM, Minerals (+)): 0.0
- SEC-MS signal of compound in measured mass range ([1]; protein 47.5 uM, compound 10 uM, Minerals (−)): 0.0
- SEC-MS signal of compound in measured mass range ([1]; protein 47.5 uM, compound 100 uM, Minerals (+)): 0.7
- SEC-MS signal of compound in measured mass range ([1]; protein 47.5 uM, compound 100 uM, Minerals (−)): 8.1
- SEC-MS signal of compound in measured mass range ([1]; protein 47.5 uM, compound 250 uM, Minerals (+)): 5.3
- SEC-MS signal of compound in measured mass range ([1]; protein 47.5 uM, compound 250 uM, Minerals (−)): 26.3
- binding bioactive substance discovered for the target protein (listed as binder) ([1]; protein FLJ43911, SEQ ID NO:61): benzethonium
- compound signal in measured mass range (SEC-MS) (FLJ45688 (SEQ ID NO:23); Minerals (+), protein 0 uM, compound 1 uM): −0.1
- compound signal in measured mass range (SEC-MS) (FLJ45688 (SEQ ID NO:23); Minerals (+), protein 0 uM, compound 10 uM): −0.1
- compound signal in measured mass range (SEC-MS) (FLJ45688 (SEQ ID NO:23); Minerals (+), protein 0 uM, compound 100 uM): 0.8
- compound signal in measured mass range (SEC-MS) (FLJ45688 (SEQ ID NO:23); Minerals (+), protein 0 uM, compound 250 uM): 12.4
- compound signal in measured mass range (SEC-MS) (FLJ45688 (SEQ ID NO:23); Minerals (+), protein 23.8 uM, compound 1 uM): 0.1
- compound signal in measured mass range (SEC-MS) (FLJ45688 (SEQ ID NO:23); Minerals (+), protein 23.8 uM, compound 10 uM): 1.2
- compound signal in measured mass range (SEC-MS) (FLJ45688 (SEQ ID NO:23); Minerals (+), protein 23.8 uM, compound 100 uM): 22.1
- compound signal in measured mass range (SEC-MS) (FLJ45688 (SEQ ID NO:23); Minerals (+), protein 23.8 uM, compound 250 uM): 57.6
- compound signal in measured mass range (SEC-MS) (FLJ45688 (SEQ ID NO:23); Minerals (−), protein 0 uM, compound 1 uM): 0.0
- compound signal in measured mass range (SEC-MS) (FLJ45688 (SEQ ID NO:23); Minerals (−), protein 0 uM, compound 10 uM): 0.0
- compound signal in measured mass range (SEC-MS) (FLJ45688 (SEQ ID NO:23); Minerals (−), protein 0 uM, compound 100 uM): 0.0
- compound signal in measured mass range (SEC-MS) (FLJ45688 (SEQ ID NO:23); Minerals (−), protein 0 uM, compound 250 uM): 0.4
- compound signal in measured mass range (SEC-MS) (FLJ45688 (SEQ ID NO:23); Minerals (−), protein 23.8 uM, compound 1 uM): 0.0
- compound signal in measured mass range (SEC-MS) (FLJ45688 (SEQ ID NO:23); Minerals (−), protein 23.8 uM, compound 10 uM): 0.6
- compound signal in measured mass range (SEC-MS) (FLJ45688 (SEQ ID NO:23); Minerals (−), protein 23.8 uM, compound 100 uM): 19.4
- compound signal in measured mass range (SEC-MS) (FLJ45688 (SEQ ID NO:23); Minerals (−), protein 23.8 uM, compound 250 uM): 41.9

- SEC-MS spectral intensity of compound (FLJ16517 (SEQ ID NO:54); Minerals (+), compound 1 uM, protein 0 uM): −0.1
- SEC-MS spectral intensity of compound (FLJ16517 (SEQ ID NO:54); Minerals (+), compound 1 uM, protein 23.8 uM): 0.0
- SEC-MS spectral intensity of compound (FLJ16517 (SEQ ID NO:54); Minerals (+), compound 1 uM, protein 47.5 uM): 0.0
- SEC-MS spectral intensity of compound (FLJ16517 (SEQ ID NO:54); Minerals (+), compound 10 uM, protein 0 uM): −0.1
- SEC-MS spectral intensity of compound (FLJ16517 (SEQ ID NO:54); Minerals (+), compound 10 uM, protein 23.8 uM): 0.0
- SEC-MS spectral intensity of compound (FLJ16517 (SEQ ID NO:54); Minerals (+), compound 10 uM, protein 47.5 uM): 0.1
- SEC-MS spectral intensity of compound (FLJ16517 (SEQ ID NO:54); Minerals (+), compound 100 uM, protein 0 uM): −0.1
- SEC-MS spectral intensity of compound (FLJ16517 (SEQ ID NO:54); Minerals (+), compound 100 uM, protein 23.8 uM): 1.0
- SEC-MS spectral intensity of compound (FLJ16517 (SEQ ID NO:54); Minerals (+), compound 100 uM, protein 47.5 uM): 0.7
- SEC-MS spectral intensity of compound (FLJ16517 (SEQ ID NO:54); Minerals (+), compound 250 uM, protein 0 uM): 0.0
- SEC-MS spectral intensity of compound (FLJ16517 (SEQ ID NO:54); Minerals (+), compound 250 uM, protein 23.8 uM): 18.4
- SEC-MS spectral intensity of compound (FLJ16517 (SEQ ID NO:54); Minerals (+), compound 250 uM, protein 47.5 uM): 12.8
- SEC-MS spectral intensity of compound (FLJ16517 (SEQ ID NO:54); Minerals (−), compound 1 uM, protein 0 uM): 0.0
- SEC-MS spectral intensity of compound (FLJ16517 (SEQ ID NO:54); Minerals (−), compound 1 uM, protein 23.8 uM): 0.0
- SEC-MS spectral intensity of compound (FLJ16517 (SEQ ID NO:54); Minerals (−), compound 1 uM, protein 47.5 uM): 0.0
- SEC-MS spectral intensity of compound (FLJ16517 (SEQ ID NO:54); Minerals (−), compound 10 uM, protein 0 uM): 0.0
- SEC-MS spectral intensity of compound (FLJ16517 (SEQ ID NO:54); Minerals (−), compound 10 uM, protein 23.8 uM): 0.0
- SEC-MS spectral intensity of compound (FLJ16517 (SEQ ID NO:54); Minerals (−), compound 10 uM, protein 47.5 uM): 0.0
- SEC-MS spectral intensity of compound (FLJ16517 (SEQ ID NO:54); Minerals (−), compound 100 uM, protein 0 uM): 0.0
- SEC-MS spectral intensity of compound (FLJ16517 (SEQ ID NO:54); Minerals (−), compound 100 uM, protein 23.8 uM): 1.3
- SEC-MS spectral intensity of compound (FLJ16517 (SEQ ID NO:54); Minerals (−), compound 100 uM, protein 47.5 uM): 1.0
- SEC-MS spectral intensity of compound (FLJ16517 (SEQ ID NO:54); Minerals (−), compound 250 uM, protein 0 uM): 0.1
- SEC-MS spectral intensity of compound (FLJ16517 (SEQ ID NO:54); Minerals (−), compound 250 uM, protein 23.8 uM): 9.2
- SEC-MS spectral intensity of compound (FLJ16517 (SEQ ID NO:54); Minerals (−), compound 250 uM, protein 47.5 uM): 11.8
Compound: CC(C)(C)c1ccc(C(=O)CCCN2CCC(OC(c3ccccc3)c3ccccc3)CC2)cc1 [ebastine]
